# US11168131B2, “Antibody molecule-drug conjugates and uses thereof” (priority 2015, dated 2021)
# Tested on: C. albicans
# Assay: Minimal inhibitory concentration (MIC) assay, broth microdilution
# Assay type: cell-based
# Settings: C. albicans ATCC 90028; MIC control compound value
# Experimental: On Day 1, all strains to be used in the assay were taken from −80° C. storage, thawed on ice, and subcultured to an appropriate agar plate using a 10 μl inoculating loop. All plates were placed at 37° C. overnight. Alternatively, strains can be subcultured from a fresh overnight agar plate or a refrigerated agar plate less than one week old.
# All strains were subcultured to an appropriate agar plate using a 10 μl inoculating loop. All plates were placed at 37° C. overnight.
# Mother plates were prepared for test compounds and standards. […] 20 μl diluent was placed in columns 2-12. […] Column 12 was used as a growth control.
# Concentration ranges can also be varied depending on the efficacy of the compounds. […] The assay then adds 80 μl (as opposed to 100 μl) of cultured media so that the compound dilution is only 1:5 (instead of 1:50).
# Daughter plates were prepared as follows.
# Cultured media were prepared as follows. […] All plates were set at 37° C. overnight.
# If controls were verified, values for all test compounds were reported.
structure (smiles),measurement,value
C[C@@H]1[C@H](O)[C@@H](C)/C=C/C=C/C=C/C=C/C=C/C=C/C=C/[C@H](O[C@@H]2O[C@H](C)[C@@H](O)[C@H](N)[C@@H]2O)C[C@@H]2O[C@](O)(C[C@@H](O)C[C@@H](O)[C@H](O)CC[C@@H](O)C[C@@H](O)CC(=O)O[C@H]1C)C[C@H](O)[C@H]2C(=O)O [Amphotericin B],MIC,4.0 µg/mL
